Measured values from the supplement of paper PMC10849652.
The other results are listed elsewhere or left out.

The chains behind the UniProt entries cited, without tags or fusion partners. Where a name states a change or a piece, a line headed by the entry shows the natural chain unless it says otherwise.
UniProt O75204: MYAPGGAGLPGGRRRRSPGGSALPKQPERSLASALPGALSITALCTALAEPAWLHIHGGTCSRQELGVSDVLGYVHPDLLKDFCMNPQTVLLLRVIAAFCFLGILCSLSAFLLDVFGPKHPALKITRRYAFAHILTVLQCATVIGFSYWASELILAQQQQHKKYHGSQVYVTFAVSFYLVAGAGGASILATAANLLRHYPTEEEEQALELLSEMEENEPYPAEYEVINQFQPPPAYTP
UniProt Q5T4D3: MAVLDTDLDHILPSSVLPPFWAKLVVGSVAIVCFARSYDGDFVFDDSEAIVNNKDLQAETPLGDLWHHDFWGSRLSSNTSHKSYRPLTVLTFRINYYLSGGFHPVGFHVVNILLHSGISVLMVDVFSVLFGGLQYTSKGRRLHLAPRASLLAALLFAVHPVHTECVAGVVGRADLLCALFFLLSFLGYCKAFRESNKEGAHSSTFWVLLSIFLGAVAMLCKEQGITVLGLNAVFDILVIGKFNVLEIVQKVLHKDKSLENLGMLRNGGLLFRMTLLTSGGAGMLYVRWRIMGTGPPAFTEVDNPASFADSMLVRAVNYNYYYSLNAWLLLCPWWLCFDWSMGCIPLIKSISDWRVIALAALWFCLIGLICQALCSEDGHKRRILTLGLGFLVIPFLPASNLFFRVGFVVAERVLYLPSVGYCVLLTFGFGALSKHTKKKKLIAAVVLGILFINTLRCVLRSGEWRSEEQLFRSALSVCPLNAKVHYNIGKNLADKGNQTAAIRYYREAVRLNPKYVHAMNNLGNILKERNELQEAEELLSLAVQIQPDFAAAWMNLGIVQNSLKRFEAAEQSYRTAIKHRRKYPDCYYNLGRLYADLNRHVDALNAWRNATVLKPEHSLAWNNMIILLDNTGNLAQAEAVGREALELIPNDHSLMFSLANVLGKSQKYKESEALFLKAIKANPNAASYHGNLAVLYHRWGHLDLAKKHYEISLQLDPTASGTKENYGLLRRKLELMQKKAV
UniProt A0PK00: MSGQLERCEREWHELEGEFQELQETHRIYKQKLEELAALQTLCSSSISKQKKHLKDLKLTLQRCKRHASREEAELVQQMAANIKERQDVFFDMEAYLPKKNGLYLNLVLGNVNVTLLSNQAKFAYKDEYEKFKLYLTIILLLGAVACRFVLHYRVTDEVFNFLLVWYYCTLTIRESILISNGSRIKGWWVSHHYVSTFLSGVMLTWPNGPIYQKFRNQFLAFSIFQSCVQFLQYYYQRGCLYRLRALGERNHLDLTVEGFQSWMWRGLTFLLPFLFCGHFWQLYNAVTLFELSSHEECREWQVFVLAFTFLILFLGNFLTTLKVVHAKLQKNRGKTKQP
UniProt Q8N2U0: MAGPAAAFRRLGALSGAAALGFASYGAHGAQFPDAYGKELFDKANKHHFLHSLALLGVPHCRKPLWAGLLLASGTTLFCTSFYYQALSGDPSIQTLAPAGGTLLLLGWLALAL
UniProt Q96IK0: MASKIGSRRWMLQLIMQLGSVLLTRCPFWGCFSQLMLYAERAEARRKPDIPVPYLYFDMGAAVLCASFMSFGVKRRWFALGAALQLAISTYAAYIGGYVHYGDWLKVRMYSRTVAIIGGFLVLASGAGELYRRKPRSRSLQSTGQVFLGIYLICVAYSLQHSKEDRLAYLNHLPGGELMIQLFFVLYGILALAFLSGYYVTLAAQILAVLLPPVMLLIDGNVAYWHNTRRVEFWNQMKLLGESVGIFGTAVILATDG
UniProt Q7Z403: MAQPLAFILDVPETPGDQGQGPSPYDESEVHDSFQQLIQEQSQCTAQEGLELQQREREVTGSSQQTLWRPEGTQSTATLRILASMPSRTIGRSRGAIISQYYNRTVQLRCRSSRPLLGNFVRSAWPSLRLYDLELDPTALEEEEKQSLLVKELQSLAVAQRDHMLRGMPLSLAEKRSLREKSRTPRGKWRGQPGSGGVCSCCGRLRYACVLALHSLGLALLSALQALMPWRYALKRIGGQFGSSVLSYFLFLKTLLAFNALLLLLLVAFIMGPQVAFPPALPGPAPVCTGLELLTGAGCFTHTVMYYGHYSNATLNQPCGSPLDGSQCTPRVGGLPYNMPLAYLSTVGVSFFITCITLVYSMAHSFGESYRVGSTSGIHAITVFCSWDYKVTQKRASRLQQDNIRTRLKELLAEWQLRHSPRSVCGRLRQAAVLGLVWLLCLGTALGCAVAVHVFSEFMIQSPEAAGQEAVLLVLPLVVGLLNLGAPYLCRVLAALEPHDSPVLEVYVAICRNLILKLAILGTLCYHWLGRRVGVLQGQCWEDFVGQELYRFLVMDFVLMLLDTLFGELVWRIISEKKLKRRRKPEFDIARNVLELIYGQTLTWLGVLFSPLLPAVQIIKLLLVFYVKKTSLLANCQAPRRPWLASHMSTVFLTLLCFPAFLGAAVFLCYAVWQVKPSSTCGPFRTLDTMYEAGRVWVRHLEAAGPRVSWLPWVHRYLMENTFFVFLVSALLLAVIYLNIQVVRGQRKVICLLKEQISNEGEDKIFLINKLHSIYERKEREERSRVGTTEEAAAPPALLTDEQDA
UniProt Q08117: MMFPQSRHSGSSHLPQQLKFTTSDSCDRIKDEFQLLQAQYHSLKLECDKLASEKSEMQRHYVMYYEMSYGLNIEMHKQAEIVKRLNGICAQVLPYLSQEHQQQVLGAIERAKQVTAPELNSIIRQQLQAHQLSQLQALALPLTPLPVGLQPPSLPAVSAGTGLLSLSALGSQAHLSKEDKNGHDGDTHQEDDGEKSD
UniProt Q8NE00: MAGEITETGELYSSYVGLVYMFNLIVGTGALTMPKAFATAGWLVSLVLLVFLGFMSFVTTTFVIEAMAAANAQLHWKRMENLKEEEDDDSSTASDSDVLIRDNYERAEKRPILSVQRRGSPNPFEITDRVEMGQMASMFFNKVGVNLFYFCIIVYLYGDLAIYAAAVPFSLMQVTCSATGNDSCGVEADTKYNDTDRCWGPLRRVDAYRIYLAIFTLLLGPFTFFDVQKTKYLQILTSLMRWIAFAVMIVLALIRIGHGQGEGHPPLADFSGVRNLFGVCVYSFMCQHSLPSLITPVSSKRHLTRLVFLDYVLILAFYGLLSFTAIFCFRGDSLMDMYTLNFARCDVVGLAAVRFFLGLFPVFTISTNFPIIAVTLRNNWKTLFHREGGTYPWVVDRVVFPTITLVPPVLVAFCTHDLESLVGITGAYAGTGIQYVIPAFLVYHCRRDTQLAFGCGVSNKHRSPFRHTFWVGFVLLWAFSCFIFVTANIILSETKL
UniProt Q7Z7N9: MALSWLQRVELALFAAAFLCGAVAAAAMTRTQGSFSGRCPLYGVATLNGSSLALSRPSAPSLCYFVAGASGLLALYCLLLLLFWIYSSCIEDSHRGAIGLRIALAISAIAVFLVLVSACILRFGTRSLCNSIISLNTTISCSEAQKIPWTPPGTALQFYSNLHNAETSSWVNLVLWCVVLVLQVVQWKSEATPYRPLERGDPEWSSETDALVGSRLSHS
UniProt Q9NX78: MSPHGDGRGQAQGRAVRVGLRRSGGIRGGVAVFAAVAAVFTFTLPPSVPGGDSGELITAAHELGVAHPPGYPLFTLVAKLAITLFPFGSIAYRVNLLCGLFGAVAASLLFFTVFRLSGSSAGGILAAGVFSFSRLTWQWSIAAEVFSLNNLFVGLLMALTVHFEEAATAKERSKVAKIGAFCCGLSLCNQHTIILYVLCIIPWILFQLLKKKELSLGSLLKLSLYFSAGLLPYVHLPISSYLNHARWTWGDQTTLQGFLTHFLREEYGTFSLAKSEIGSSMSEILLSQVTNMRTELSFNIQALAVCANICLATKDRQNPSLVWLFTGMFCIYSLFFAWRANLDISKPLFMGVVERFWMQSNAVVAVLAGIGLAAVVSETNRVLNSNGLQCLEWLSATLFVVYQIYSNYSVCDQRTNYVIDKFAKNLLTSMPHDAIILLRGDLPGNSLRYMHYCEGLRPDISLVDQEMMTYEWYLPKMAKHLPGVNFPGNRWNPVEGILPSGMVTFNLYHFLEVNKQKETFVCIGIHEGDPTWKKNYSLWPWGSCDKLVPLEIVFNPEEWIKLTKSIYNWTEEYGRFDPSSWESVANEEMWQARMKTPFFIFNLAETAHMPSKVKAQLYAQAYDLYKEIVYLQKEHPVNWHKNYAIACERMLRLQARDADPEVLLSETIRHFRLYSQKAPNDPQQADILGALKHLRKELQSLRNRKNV
UniProt Q92545: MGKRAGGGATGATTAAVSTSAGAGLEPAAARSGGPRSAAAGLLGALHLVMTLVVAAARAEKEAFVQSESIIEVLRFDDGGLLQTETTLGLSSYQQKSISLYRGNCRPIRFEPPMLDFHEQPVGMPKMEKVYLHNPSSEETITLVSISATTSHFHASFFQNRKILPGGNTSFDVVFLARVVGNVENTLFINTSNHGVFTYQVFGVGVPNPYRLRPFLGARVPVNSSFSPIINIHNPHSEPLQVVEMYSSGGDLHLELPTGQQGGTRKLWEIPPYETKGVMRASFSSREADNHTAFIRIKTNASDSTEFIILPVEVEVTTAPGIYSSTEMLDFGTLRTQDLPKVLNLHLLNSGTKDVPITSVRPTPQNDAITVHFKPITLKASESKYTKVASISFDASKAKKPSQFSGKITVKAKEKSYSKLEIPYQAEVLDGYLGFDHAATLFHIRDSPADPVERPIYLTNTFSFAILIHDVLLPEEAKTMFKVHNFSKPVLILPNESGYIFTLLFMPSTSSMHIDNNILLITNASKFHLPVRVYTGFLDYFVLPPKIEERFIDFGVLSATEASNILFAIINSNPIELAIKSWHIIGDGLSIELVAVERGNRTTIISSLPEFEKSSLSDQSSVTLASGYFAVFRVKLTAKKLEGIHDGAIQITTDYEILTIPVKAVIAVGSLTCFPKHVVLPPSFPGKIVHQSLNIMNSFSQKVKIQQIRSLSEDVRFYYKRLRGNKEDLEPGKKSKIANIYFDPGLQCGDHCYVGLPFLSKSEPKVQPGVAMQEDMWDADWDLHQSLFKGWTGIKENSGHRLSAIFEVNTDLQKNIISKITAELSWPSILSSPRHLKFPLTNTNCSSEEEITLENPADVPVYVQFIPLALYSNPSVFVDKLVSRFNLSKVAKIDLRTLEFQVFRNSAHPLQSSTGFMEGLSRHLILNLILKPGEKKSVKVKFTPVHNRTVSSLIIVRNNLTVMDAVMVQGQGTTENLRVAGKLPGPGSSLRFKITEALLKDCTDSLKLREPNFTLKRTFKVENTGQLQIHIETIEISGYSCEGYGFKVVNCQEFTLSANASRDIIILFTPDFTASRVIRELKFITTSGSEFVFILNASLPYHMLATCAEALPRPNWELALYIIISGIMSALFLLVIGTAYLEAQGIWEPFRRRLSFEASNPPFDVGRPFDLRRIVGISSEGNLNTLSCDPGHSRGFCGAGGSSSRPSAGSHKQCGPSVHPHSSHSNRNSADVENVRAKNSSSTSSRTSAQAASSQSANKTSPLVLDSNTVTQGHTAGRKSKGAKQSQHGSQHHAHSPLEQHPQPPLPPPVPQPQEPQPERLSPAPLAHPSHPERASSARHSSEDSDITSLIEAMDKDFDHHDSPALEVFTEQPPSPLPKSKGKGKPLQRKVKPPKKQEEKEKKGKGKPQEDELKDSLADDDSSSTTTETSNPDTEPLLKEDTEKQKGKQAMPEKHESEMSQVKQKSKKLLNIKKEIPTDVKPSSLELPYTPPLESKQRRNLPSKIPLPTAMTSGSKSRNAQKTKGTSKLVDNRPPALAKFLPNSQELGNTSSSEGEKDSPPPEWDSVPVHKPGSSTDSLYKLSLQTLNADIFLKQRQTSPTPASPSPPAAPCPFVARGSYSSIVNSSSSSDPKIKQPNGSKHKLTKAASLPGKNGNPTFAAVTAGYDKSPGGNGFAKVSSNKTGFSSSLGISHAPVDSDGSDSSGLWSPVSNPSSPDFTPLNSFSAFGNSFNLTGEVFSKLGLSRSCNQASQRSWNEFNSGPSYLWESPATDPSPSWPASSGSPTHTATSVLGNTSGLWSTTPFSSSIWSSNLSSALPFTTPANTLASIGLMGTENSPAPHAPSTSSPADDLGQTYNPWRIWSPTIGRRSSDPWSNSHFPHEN
UniProt Q9P2C4: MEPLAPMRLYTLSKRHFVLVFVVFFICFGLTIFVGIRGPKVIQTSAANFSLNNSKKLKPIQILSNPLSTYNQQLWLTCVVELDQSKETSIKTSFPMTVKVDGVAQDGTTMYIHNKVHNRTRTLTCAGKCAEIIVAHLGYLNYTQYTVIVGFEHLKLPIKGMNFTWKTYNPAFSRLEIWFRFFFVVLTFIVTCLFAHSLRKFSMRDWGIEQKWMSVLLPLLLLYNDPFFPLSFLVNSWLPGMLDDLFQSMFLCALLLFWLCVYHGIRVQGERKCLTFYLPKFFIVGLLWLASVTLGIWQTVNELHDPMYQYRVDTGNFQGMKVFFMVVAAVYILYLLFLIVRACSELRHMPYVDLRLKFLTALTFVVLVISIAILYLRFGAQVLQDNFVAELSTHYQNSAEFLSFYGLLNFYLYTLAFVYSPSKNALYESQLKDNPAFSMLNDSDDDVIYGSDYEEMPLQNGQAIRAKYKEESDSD

Columns and labels:
Experiment in all cases: log2 fold change, soluble protein after heating vs DMSO (PISA); higher = thermal stabilisation; K562 cells, 10 uM, 30 min; active = over 0.2 and 3.5 SD of the protein, either way, in both replicates (recomputed)
[1] = compound: CN1CC[C@H](c2c(O)cc(O)c3c(=O)cc(-c4ccccc4Cl)oc23)[C@H](O)C1 [alvocidib]
Summary of the method: (§1)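 Quantification of soluble protein used TMTpro 16plex LC-MS/MS, with channel sums equalised. Samples were the supernatant after 21,000xg for 90 min of pooled aliquots from K562 cells (2×10^6 cells/mL) treated with 10 μM compound for 30 min, heated for 3 min over 48°C-58°C, and extracted in PBS with 0.5% NP-40 at 4°C. Values, from duplicates, describe thermal stability against control samples on a log2 fold-change scale.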

[2] = compound: CN1CCc2c(c3ccccc3n2Cc2ccc(C(=O)NO)cc2)C1 [Tubastatin A]
Summary of the method: as §1

[3] = compound: CNC(=O)C1=CC=CC=C1NC2=NC(=NC=C2Cl)NC3=C(C=C(C=C3)N4CCOCC4)OC
Summary of the method: as §1

[4] = compound: CO[C@H]1C[C@@H]2CC[C@@H](C)[C@@](O)(O2)C(=O)C(=O)N2CCCC[C@H]2C(=O)O[C@H]([C@H](C)C[C@@H]2CC[C@H](n3cnnn3)[C@H](OC)C2)CC(=O)[C@H](C)/C=C(\C)[C@@H](O)[C@@H](OC)C(=O)[C@H](C)C[C@H](C)/C=C/C=C/C=C/1C [zotarolimus]
Summary of the method: as §1

[5] = compound: COc1cc(C(=O)O)ccc1NC(=O)[C@@H]1N[C@@H](CC(C)(C)C)[C@](C#N)(c2ccc(Cl)cc2F)[C@H]1c1cccc(Cl)c1F [idasanutlin]
Summary of the method: as §1

[6] = compound: COc1cc2ncnc(Nc3ccc(F)c(Cl)c3)c2cc1OCCCN1CCOCC1 [gefitinib]
Summary of the method: as §1

[7] = compound: CN1CCN(CCOc2cc(OC3CCOCC3)c3c(Nc4c(Cl)ccc5c4OCO5)ncnc3c2)CC1 [saracatinib]
Summary of the method: as §1

[8] = compound: CNc1nc(-c2ccc3c(N)n[nH]c3c2)cc(N2C[C@@H](C(=O)NC3CCCCC3)CC[C@H]2C)n1
Summary of the method: as §1

[9] = compound: COC1=CC=C(C=C1)CN2C=CC3=C2C=C(C=C3)C(=O)NO
Summary of the method: as §1

[10] = compound: CNC(=O)c1ccc(Nc2ncc(C(F)(F)F)c(NCc3nccnc3N(C)S(C)(=O)=O)n2)cc1 [defactinib]
Summary of the method: as §1

[11] = compound: COC(=O)[C@H](CCSC)NC(=O)C1=C(C=C(C=C1)NC[C@H](CS)N)C2=CC=CC=C2
Summary of the method: as §1

[12] = compound: COc1cc(Nc2ncc3c(n2)-c2ccc(Cl)cc2C(c2c(F)cccc2OC)=NC3)ccc1C(=O)O [alisertib]
Summary of the method: as §1

[13] = compound: COc1cccc2cc(-c3nc([C@H]4CC[C@H](C(=O)O)CC4)n4ncnc(N)c34)[nH]c12
Summary of the method: as §1

[14] = compound: CS(=O)(=O)N1CCN(Cc2cc3nc(-c4cccc5[nH]ncc45)nc(N4CCOCC4)c3s2)CC1 [pictilisib]
Summary of the method: as §1

[15] = compound: CNCc1ccc(-c2[nH]c3cc(F)cc4c3c2CCNC4=O)cc1 [rucaparib]
Summary of the method: as §1

[16] = compound: COC(=O)N[C@@H](C)CNc1nccc(-c2cn(C(C)C)nc2-c2cc(Cl)cc(NS(C)(=O)=O)c2F)n1 [encorafenib]
Summary of the method: as §1

[17] = compound: COc1cc2nc(-c3cc(F)ccc3O)nc(N[C@@H]3CNC[C@H]3C(C)(C)O)c2cc1OC
Summary of the method: as §1

[18] = compound: CS(=O)(=O)CCNCc1ccc(-c2ccc3ncnc(Nc4ccc(OCc5cccc(F)c5)c(Cl)c4)c3c2)o1 [lapatinib]
Summary of the method: as §1

[19] = compound: CN1CCN(c2nc(C3=C(c4c[nH]c5ccccc45)C(=O)NC3=O)c3ccccc3n2)CC1 [sotrastaurin]
Summary of the method: as §1

[20] = compound: CON(C)C(=O)N1N=C(c2cc(F)ccc2F)S[C@@]1(CCCN)c1ccccc1 [filanesib]
Summary of the method: as §1

Measured: log2 fold change

TMEM127 (UniProt O75204)
inactive: [1] 0.056 | [2] -0.015 | [3] 0.038 | [4] -0.004 | [5] -0.019 | [6] -0.081

TMTC4 isoform 3 (UniProt Q5T4D3)
inactive: [7] 0.337 | [8] 0.248 | [9] -0.17

TMEM120B (UniProt A0PK00)
inactive: [7] 0 | [1] -0.119 | [2] 0.252 | [3] 0.041 | [10] -0.188 | [8] 0.107 | [11] -0.208 | [9] 0.096 | [4] -0.011 | [5] -0.122 | [12] 0.131 | [6] -0.044 | [13] -0.451 | [14] -0.306

TMEM256 (UniProt Q8N2U0)
inactive: [3] 0.128

TMEM101 (UniProt Q96IK0)
inactive: [7] -0.014 | [1] -0.063 | [2] -0.031 | [3] 0.018 | [10] -0.054 | [15] -0.013 | [8] -0.024 | [16] 0.165 | [11] 0.037 | [9] -0.075 | [4] -0.005 | [5] -0.145 | [12] -0.047 | [17] -0.083 | [6] -0.051 | [13] -0.025 | [18] -0.001 | [14] 0.061

TMC6 (UniProt Q7Z403)
inactive: [7] -0.065 | [1] -0.057 | [2] -0.231 | [3] -0.132 | [10] -0.073 | [15] 0.055 | [8] 0.038 | [16] 0.207 | [11] -0.035 | [9] -0.196 | [4] -0.039 | [5] 0.06 | [12] 0 | [17] -0.13 | [6] -0.109 | [13] -0.004 | [18] 0.065 | [14] -0.004

TLNRD1 (UniProt Q9H1K6)
inactive: [1] -0.196 | [2] -0.096 | [4] -0.11

TLE5 isoform 2 (UniProt Q08117)
inactive: [7] 0.163 | [1] 0.06 | [10] 0.021 | [15] 0.009 | [8] -0.025 | [16] -0.02 | [11] -0.142 | [4] 0.088 | [5] -0.167 | [12] 0.019 | [17] -0.058 | [6] -0.076 | [13] 0.077 | [18] 0.113 | [14] -0.077

TMEM104 (UniProt Q8NE00)
inactive: [7] -0.024 | [3] -0.007 | [15] 0.06 | [8] -0.122 | [16] 0.056 | [9] 0.134 | [4] -0.01 | [5] -0.081 | [12] -0.012 | [17] 0.016 | [6] 0.061 | [13] 0.164 | [18] -0.156 | [14] -0.341

TMEM175 (UniProt Q9BSA9)
inactive: [7] -0.095 | [2] 0.014 | [3] 0.023 | [15] 0.039 | [8] -0.098 | [16] 0.076 | [5] -0.352 | [17] 0.044 | [18] -0.065

TMEM44 (UniProt Q2T9K0)
inactive: [3] -0.086 | [9] -0.291 | [6] -0.349

TMEM179B (UniProt Q7Z7N9)
inactive: [19] 0.151 | [2] 0.036 | [3] 0.044 | [15] 0.026 | [16] -0.015 | [9] -0.019 | [20] -0.162 | [4] -0.205 | [5] 0.088 | [12] -0.007 | [17] -0.03 | [6] 0.039 | [13] 0.175 | [18] 0.032 | [14] 0.036

TMEM260 (UniProt Q9NX78)
inactive: [7] 0.048 | [2] 0.056 | [3] 0.022 | [8] -0.16 | [9] 0.1 | [5] 0.15 | [12] -0.044 | [13] 0.118

TMEM69 (UniProt Q5SWH9)
inactive: [1] 0.045 | [2] 0.084 | [3] -0.09 | [15] 0.009 | [16] 0.051 | [9] -0.013 | [4] 0.038 | [5] -0.08 | [12] 0.047 | [17] 0.05 | [6] -0.109 | [13] 0.164 | [18] -0.008 | [14] -0.115

TMEM131 (UniProt Q92545)
inactive: [19] 0.003 | [2] -0.02 | [3] 0 | [20] -0.026 | [5] -0.053 | [14] 0.007

TMEM129
inactive: [7] -0.039 | [2] 0.241 | [8] 0.025 | [17] -0.071 | [6] 0.316 | [18] 0.085

2 records picked at random from those above:
TMEM175 (UniProt Q9BSA9)
inactive: [7] -0.095 | [2] 0.014 | [3] 0.023 | [15] 0.039 | [8] -0.098 | [16] 0.076 | [5] -0.352 | [17] 0.044 | [18] -0.065

TLNRD1 (UniProt Q9H1K6)
inactive: [1] -0.196 | [2] -0.096 | [4] -0.11

Later entries.

TMEM181 (UniProt Q9P2C4)
inactive: [7] 0.109 | [1] 0.098 | [2] -0.085 | [3] 0.026 | [10] -0.017 | [15] 0.052 | [8] 0.003 | [16] -0.032 | [11] -0.16 | [9] 0.269 | [4] 0.098 | [5] 0.057 | [12] -0.006 | [17] -0.113 | [13] -0.013 | [18] 0.012 | [14] -0.023
